In paper PMC12561426:

System: BACH1 DBD of BACH1-sMafGχ + sMafG DBD of chimeras
Experiment: EMSA
Settings: 150 mM NaCl, 50 mM HEPES pH 7.9, 10% glycerol, 1 mM TCEP, 1 mM DTT, 2 mM MgCl2, 3 nM DNA, TEV and 3C 50 ug/mL each, 4 h 25 °C, competition then O/N 4 °C, recombinant protein

Sequence	binding result (8 h non-reducing before DNA assembly, large binding reduction, dye not stated, label: Cy5 on forward strand)	binding result (incubation-first: 10 h at 4 °C without reducing agent, then DNA, dye on DNA not stated, label: 5' fluorescein on forward strand)
CTCGGGACCGTGACTCAGCAGGAAAAACAC (double strand) [HMOX1 CsMBE 30-mer, Cy5]	binds more weakly	
CTCGGGACCGTGACTCAGCAGGAAAAACAC (double strand) [HMOX1 CsMBE 30-mer]		no binding

A negative result means that nothing was seen under these conditions. The exact form of at least one protein or probe is not confirmed. The comparison behind a weaker result is the experiment's own reference, which may not be listed here.
